Test results as given in publication PMC10119315.
Results are given in words; binding and its absence hold for the method and conditions named. Binding seen in cells or lysates may run through a third protein. A result given as binding can be weak or reduced; the word gives no strength.

Chains of the proteins cited; added tags and fusions are not shown. Lines headed by an entry give the natural chain unless they say otherwise; changes in a name come on top. Residues count along the entry.
UniProt P01137: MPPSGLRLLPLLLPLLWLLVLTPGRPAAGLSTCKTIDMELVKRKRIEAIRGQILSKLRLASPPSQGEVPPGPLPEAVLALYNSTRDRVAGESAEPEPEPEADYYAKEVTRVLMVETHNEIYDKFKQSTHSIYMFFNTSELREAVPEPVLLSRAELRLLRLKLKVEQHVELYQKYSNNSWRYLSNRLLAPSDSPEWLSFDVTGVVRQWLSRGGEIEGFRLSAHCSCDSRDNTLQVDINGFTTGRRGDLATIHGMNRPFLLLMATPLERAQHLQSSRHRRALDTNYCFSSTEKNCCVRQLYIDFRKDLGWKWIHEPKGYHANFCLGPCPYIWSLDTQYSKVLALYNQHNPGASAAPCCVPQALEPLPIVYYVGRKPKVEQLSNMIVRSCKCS
UniProt Q61738, residues 34-1179: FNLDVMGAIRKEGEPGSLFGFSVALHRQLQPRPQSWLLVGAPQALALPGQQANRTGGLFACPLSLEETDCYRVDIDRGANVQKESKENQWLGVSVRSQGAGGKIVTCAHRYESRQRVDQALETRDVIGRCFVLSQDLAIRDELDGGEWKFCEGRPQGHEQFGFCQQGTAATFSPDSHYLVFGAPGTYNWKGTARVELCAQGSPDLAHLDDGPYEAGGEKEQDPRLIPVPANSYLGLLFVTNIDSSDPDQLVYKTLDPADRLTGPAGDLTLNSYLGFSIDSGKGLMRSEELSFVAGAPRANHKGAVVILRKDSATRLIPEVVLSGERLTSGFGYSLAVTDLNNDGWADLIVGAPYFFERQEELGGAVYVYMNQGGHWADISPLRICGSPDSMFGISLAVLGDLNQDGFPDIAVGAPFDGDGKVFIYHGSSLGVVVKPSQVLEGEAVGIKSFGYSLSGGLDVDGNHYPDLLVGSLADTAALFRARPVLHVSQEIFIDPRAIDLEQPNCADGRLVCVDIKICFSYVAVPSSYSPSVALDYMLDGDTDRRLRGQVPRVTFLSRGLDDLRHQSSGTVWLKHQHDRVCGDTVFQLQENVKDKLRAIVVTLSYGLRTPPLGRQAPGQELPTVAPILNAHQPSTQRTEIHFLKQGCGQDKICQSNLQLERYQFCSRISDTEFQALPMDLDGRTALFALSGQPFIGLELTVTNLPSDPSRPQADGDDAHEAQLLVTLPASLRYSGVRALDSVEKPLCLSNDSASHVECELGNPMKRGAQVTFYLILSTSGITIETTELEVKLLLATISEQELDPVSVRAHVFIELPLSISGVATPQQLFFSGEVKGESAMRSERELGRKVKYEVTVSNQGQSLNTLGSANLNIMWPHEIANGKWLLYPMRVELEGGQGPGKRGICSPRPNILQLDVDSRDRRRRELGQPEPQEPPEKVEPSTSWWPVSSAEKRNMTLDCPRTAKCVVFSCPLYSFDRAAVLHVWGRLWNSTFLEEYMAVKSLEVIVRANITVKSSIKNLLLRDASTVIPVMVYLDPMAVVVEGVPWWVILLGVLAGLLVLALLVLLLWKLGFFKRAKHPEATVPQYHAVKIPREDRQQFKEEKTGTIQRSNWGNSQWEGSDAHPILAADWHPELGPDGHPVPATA

Molecular target: LAP-TGF-β1-RGD^del-GFP (overexpressed in VSMCs) (human) (UniProt P01137)
Experiment: co-IP; VSMCs (MOVAS) transfected with the GFP-tagged LAP-TGF-β1 only; endogenous integrin α7; same lysis buffer; antibody against GFP or control IgG, Protein A/G agarose; Western blot

binding: binds
Substance: endogenous integrin α7 (VSMCs) (from UniProt Q61738 34-1179) (receptor)
